Reference: paper PMC3531340
Results are given in words; binding and its absence hold for the method and conditions named. Some entries that bind do so weakly or less than the wild type. Sequences can lack the tags named with a protein.

Biological target: T1, Bombyx ultraspiracle USP1, CytoTrap two-hybrid fusion (Bombyx mori (silkworm)) (UniProt P49700)
T1 sequence: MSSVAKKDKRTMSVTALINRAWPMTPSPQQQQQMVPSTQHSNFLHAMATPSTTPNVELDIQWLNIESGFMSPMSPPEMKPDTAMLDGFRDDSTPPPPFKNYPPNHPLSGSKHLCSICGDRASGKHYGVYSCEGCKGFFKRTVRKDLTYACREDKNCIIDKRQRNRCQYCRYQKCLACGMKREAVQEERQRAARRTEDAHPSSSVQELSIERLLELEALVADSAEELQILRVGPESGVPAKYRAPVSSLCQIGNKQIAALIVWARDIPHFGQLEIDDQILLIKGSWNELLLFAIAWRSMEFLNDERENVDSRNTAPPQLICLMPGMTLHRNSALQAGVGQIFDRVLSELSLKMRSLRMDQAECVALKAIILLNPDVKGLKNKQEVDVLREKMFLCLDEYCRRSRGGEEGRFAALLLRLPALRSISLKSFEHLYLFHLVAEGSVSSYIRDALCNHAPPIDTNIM
Assay: two-hybrid; CytoTrap system (Stratagene) in yeast cdc25H; bait fused to human Sos, prey fused to a myristoylation signal under the GAL1 promoter; growth at restrictive temperature on galactose medium; more colonies mean a stronger association

binding: binds
B1: Bombyx ecdysone receptor EcR-B1, CytoTrap two-hybrid fusion (protein, UniProt P49881 1-606)
chain: MRVENVDNVSFALNGRADEWCMSVETRLDSLVREKSEVKAYVGGCPSVITDAGAYDALFDMRRRWSNNGGFPLRMLEESSSEVTSSSALGLPPAMVMSPESLASPEYRALELWSYDDGITYNTAQSLLGACNMQQQQLQPQQPHPAPPTLPTMPLPMPPTTPKSENESMSSGREELSPASSINGCSADADARRQKKGPAPRQQEELCLVCGDRASGYHYNALTCEGCKGFFRRSVTKNAVYICKFGHACEMDMYMRRKCQECRLKKCLAVGMRPECVIQEPSKNKDRQRQKKDKGILLPVSTTTVEDHMPPIMQCDPPPPEAARIHEVVPRYLSEKLMEQNRQKNIPPLSANQKSLIARLVWYQEGYEQPSDEDLKRVTQTWQSDEEDEESDLPFRQITEMTILTVQLIVEFAKGLPGFSKISQSDQITLLKASSSEVMMLRVARRYDAASDSVLFANNKAYTRDNYRQGGMAYVIEDLLHFCRCMFAMGMDNVHFALLTAIVIFSDRPGLEQPSLVEEIQRYYLNTLRIYIINQNSASSRCAVIYGRILSVLTELRTLGTQNSNMCISLKLKNRKLPPFLEEIWDVAEVATTHPTVLPPTNPVVL
